In the supplement of paper PMC10849652:
Some of the results follow.

Chains of the proteins cited; added tags and fusions are not shown. Lines headed by an entry give the natural chain unless they say otherwise; changes in a name come on top.
UniProt Q96GX2: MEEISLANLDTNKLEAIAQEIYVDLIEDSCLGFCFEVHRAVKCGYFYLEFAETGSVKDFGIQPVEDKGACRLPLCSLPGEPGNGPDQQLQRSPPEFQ
UniProt Q8IXJ9: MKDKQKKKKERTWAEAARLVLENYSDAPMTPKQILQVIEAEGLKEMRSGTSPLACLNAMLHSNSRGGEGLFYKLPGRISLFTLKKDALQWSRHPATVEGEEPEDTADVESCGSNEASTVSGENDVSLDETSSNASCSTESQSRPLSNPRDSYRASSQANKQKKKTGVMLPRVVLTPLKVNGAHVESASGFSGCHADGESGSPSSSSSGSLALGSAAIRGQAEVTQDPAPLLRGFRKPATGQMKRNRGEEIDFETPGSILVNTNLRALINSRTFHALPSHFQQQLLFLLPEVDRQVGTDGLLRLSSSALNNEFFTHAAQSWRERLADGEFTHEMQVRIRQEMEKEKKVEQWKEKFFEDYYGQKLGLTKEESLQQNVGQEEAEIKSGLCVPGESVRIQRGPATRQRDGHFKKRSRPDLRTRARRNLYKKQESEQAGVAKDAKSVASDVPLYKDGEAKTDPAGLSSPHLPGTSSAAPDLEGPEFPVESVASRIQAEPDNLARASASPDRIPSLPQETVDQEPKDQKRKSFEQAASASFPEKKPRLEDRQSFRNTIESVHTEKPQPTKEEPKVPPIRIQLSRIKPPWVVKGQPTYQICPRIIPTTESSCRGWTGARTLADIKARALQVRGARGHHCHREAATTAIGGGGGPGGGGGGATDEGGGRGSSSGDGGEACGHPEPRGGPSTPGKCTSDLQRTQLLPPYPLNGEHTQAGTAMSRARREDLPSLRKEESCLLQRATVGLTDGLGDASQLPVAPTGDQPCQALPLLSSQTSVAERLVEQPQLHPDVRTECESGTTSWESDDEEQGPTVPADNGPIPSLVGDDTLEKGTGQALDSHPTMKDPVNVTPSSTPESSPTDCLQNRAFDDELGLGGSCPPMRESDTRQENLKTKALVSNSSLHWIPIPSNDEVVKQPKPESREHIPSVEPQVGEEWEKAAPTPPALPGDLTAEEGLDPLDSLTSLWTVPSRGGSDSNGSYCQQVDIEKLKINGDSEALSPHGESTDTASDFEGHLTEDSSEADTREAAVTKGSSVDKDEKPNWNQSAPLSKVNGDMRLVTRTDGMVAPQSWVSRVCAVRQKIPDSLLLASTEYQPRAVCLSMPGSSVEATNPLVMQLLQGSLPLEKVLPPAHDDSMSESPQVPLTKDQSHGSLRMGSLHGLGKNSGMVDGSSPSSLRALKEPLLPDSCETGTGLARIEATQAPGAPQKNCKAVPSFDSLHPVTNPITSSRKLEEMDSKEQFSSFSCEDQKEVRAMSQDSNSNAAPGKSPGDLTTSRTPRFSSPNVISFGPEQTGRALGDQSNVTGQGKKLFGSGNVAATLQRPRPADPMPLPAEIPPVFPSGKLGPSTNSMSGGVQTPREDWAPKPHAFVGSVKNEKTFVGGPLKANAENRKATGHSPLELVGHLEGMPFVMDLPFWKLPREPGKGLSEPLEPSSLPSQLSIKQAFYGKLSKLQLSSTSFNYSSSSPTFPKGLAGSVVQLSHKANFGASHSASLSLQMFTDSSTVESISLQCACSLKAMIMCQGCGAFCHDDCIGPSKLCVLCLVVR
UniProt P08243: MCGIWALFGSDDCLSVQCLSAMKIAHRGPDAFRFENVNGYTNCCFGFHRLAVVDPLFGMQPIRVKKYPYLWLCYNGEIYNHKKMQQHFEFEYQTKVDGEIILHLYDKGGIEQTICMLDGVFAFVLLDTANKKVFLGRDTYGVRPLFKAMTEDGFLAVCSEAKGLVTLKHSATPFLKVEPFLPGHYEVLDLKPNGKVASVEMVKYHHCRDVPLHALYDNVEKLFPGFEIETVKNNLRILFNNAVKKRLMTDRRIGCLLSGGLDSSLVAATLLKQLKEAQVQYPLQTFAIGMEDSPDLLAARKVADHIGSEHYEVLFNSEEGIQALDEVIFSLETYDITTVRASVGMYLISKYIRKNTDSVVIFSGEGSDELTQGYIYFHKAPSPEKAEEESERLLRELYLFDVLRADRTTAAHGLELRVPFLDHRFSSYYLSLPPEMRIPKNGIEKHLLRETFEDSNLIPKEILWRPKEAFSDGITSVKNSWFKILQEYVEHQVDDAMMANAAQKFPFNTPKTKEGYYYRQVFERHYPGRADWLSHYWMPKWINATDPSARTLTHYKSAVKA
UniProt P18846: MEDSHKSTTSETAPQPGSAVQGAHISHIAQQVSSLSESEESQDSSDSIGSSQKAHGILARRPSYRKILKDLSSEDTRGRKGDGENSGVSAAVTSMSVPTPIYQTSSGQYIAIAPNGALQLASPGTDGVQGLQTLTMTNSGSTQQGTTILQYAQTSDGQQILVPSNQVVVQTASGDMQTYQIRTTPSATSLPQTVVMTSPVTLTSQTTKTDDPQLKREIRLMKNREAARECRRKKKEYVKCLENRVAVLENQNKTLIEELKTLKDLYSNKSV
UniProt Q8IZT6: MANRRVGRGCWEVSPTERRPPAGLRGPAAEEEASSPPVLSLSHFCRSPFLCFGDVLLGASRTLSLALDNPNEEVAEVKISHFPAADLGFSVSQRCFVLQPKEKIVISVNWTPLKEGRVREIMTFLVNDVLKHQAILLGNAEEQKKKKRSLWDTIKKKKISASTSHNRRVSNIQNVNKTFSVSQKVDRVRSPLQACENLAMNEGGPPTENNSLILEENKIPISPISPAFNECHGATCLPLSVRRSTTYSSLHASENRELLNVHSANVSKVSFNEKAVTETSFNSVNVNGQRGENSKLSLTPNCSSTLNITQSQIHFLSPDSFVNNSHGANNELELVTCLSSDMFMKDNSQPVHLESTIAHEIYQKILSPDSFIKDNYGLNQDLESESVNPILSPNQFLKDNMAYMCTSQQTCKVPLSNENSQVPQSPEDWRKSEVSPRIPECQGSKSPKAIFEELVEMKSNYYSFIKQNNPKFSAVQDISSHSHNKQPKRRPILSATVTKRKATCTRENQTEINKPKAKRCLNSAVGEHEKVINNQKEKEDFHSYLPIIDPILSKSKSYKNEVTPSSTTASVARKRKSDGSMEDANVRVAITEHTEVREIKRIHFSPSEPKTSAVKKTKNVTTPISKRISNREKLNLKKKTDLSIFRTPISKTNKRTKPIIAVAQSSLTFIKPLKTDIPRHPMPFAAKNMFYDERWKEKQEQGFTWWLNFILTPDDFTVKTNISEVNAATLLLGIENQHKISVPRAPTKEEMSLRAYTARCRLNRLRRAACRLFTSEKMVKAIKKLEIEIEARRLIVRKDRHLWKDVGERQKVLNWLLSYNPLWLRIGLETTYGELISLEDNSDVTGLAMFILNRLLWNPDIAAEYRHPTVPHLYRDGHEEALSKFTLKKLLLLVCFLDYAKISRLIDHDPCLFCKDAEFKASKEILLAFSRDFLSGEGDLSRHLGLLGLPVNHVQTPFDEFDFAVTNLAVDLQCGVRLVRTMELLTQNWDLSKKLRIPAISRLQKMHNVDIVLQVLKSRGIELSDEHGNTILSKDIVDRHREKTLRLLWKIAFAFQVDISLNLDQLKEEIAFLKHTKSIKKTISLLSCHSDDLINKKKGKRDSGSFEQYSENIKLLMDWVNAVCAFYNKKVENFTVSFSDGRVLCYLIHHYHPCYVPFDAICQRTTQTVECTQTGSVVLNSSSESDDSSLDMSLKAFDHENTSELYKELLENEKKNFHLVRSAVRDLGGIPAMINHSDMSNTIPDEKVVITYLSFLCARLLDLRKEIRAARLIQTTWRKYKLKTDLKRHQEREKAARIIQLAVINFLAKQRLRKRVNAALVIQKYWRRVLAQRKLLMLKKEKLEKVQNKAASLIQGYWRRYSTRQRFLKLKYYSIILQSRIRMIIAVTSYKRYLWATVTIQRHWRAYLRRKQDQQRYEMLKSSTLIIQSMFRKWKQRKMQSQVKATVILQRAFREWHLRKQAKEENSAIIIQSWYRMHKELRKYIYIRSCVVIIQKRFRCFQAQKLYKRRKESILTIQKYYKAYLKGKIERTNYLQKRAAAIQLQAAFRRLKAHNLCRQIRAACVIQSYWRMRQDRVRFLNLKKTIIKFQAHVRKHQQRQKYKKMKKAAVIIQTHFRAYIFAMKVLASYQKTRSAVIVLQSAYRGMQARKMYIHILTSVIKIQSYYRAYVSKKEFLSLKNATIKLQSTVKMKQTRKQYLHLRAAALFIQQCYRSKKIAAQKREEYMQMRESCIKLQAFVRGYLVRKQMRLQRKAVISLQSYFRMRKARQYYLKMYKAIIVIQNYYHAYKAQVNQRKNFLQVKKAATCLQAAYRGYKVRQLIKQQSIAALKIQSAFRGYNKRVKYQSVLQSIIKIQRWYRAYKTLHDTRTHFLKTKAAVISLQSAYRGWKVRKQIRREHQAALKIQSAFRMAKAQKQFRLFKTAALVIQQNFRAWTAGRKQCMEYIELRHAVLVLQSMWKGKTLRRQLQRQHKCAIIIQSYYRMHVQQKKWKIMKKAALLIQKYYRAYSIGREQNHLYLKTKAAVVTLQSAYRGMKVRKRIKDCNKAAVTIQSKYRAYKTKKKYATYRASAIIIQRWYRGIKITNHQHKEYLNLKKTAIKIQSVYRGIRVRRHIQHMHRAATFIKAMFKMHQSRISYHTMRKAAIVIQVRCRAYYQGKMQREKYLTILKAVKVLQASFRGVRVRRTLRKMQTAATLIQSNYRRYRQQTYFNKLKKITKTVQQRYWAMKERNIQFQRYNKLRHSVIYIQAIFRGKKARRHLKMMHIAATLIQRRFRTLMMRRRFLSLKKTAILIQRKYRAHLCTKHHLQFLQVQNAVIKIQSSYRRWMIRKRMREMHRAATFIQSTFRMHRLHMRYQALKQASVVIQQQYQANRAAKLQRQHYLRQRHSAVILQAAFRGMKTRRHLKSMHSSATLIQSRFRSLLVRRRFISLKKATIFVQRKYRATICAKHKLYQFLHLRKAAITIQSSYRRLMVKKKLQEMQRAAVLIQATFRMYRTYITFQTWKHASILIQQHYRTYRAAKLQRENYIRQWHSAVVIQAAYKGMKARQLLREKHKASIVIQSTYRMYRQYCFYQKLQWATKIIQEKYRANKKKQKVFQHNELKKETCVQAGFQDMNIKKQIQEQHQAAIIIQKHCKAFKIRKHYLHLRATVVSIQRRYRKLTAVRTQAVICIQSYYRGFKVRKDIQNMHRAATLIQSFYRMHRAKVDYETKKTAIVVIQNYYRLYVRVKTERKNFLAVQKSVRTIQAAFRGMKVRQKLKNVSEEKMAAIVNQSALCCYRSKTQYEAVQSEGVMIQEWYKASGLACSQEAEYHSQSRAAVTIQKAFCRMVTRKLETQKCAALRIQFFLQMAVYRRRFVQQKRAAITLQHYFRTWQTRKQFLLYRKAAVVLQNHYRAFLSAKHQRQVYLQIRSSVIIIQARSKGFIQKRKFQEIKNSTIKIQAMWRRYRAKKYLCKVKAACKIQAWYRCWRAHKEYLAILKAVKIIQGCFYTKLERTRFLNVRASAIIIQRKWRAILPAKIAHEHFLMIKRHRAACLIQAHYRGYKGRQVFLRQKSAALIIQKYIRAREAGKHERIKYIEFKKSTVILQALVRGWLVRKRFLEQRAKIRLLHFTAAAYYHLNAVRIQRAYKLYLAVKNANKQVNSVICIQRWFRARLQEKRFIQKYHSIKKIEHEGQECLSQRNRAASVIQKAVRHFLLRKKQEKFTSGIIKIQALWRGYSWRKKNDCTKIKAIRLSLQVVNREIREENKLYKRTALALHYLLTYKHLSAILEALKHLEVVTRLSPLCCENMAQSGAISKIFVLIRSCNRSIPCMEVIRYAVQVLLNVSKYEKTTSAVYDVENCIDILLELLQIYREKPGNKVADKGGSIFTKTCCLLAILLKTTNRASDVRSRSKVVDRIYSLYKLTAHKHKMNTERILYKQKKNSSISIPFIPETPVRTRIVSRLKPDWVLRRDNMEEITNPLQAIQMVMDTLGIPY
UniProt Q14CW9: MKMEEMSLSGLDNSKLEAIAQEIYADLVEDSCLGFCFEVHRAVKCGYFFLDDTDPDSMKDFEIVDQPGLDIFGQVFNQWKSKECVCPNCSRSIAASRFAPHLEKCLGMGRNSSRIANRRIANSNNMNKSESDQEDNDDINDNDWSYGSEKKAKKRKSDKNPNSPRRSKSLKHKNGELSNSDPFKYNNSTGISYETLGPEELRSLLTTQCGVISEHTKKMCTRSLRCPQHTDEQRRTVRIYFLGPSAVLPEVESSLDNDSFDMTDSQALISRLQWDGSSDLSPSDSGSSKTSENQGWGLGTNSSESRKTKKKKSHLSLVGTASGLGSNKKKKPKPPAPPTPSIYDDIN
UniProt B2RBV5: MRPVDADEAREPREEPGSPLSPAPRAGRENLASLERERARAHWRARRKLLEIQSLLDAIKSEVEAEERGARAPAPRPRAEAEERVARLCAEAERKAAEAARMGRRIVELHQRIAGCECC

Tests used:
Assay in all cases: log2 fold change, soluble protein after heating vs DMSO (PISA); higher = thermal stabilisation; K562 lysate, 10 uM; active = over 0.2 and 3.5 SD of the protein, either way, in both replicates (recomputed)
erlotinib = compound: C#Cc1cccc(Nc2ncnc3cc(OCCOC)c(OCCOC)cc23)c1 [erlotinib]
How it was run: (§1)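 Following dounce homogenisation of K562 pellets in PBS pH 7.4 with 1 mM MgCl2, crude extract at 1 mg/mL protein was incubated for 30 min with 10 μM compound. Aliquots were then heated for 3 min over 48°C-58°C and pooled, NP-40 was added to 0.5% at 4°C, and soluble protein was recovered as the supernatant at 21,000xg for 90 min. Channel-sum-equalised TMTpro 16plex LC-MS/MS quantified this protein. Each value, from duplicates, is a log-two fold change in thermal stability relative to solvent controls.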

[1] = compound: C/C(=N\NC(=O)C1=CC(=CC=C1)S(=O)(=O)N2CCOCC2)/C3=C(C=CC(=C3)Cl)O
How it was run: as §1

[2] = compound: C1=CC(=CC=C1C2=NC3=C(N2)C=C(C=C3)C(=O)N)OC4=CC=C(C=C4)Cl
How it was run: as §1

[3] = compound: C1=CC2=C(C=CC(=C2)/C=C\3/C(=O)NC(=NCC4=CC=CS4)S3)N=C1
How it was run: as §1

[4] = compound: C1=CC2=NC=CN=C2C=C1/C=C/3\C(=O)NC(=O)S3
How it was run: as §1

[5] = compound: C1=CC=C(C=C1)C2=NC(=C(N2)C3=CC=NC=C3)C4=CC(=C(C=C4)Cl)O
How it was run: as §1

[6] = compound: C1=CC=C2C(=C1)C3=NNC4=CC=CC(=C43)C2=O
How it was run: as §1

[7] = compound: C1CCN(C1)C(=O)NC2=CC=CC(=C2)NC3=NC=C(C(=N3)NCCC4=CN=CN4)Br
How it was run: as §1

[8] = compound: C1CN(CCC1(CC2=CC=C(C=C2)Cl)N)C3=NC=NC4=C3C=CN4
How it was run: as §1

IRAK-1-4 Inhibitor I = compound: C1COCCN1CCN2C3=CC=CC=C3N=C2NC(=O)C4=CC(=CC=C4)[N+](=O)[O-] [IRAK-1-4 Inhibitor I]
How it was run: as §1

ibrutinib = compound: C=CC(=O)N1CCC[C@@H](n2nc(-c3ccc(Oc4ccccc4)cc3)c3c(N)ncnc32)C1 [ibrutinib]
How it was run: as §1

ralimetinib = compound: CC(C)(C)Cn1c(N)nc2ccc(-c3[nH]c(C(C)(C)C)nc3-c3ccc(F)cc3)nc21 [ralimetinib]
How it was run: as §1

[9] = compound: CC(C)(O)CC(=O)NCCn1ccc2ncnc(Nc3ccc(Oc4cccc(C(F)(F)F)c4)c(Cl)c3)c21
How it was run: as §1

[10] = compound: CC(C)C1=C2N=C(C=C(N2N=C1)NCC3=CC=CC=C3)NCCCCCCN
How it was run: as §1

[11] = compound: CC1=C(C(CC(=O)N1)C2=CC=C(C=C2)C(F)(F)F)C(=O)NC3=C(C=C4C(=C3)C=NN4)F
How it was run: as §1

[12] = compound: CC1=C(C2=C(C=C1)C(=O)C3=CC=CC=C3N2CCCN)C
How it was run: as §1

[13] = compound: CC1=C(C=C(C=C1)NC(=O)C2=CC(=CC=C2)C(C)(C)C#N)NC3=CC4=C(C=C3)N=CN(C4=O)C
How it was run: as §1

[14] = compound: CC1=C(C=C(C=C1)NC(=O)C2=CC(=CC=C2)N(C)C)NC(=O)C3=CC=C(C=C3)O
How it was run: as §1

[15] = compound: CC(=O)c1cnc2ccc(-c3cc(Cl)c(O)c(Cl)c3)nc2c1N[C@H]1CC[C@H](CN(C)C)CC1
How it was run: as §1

[16] = compound: CC1=CC=C(C=C1)SC2=C3C=C(SC3=CN=C2)C(=O)N
How it was run: as §1

Measured: log2 fold change

ATXN7L3B (UniProt Q96GX2)
inactive: erlotinib 0.033 | [1] 0.021 | [2] -0.044 | [3] 0.024 | [4] -0.017 | [5] -0.002 | [6] -0.037 | [7] -0.194 | [8] 0 | IRAK-1-4 Inhibitor I 0.022 | ibrutinib 0.031 | ralimetinib 0.019 | [9] -0.048 | [10] 0.039 | [11] -0.026 | [12] -0.014 | [13] 0.05 | [14] 0.029

B3GAT3 (UniProt O94766)
inactive: erlotinib -0.045 | [1] -0.068 | [2] -0.079 | [3] 0.028 | [4] -0.017 | [5] -0.097 | [6] 0.002 | [7] -0.066 | [8] 0.01 | IRAK-1-4 Inhibitor I 0.052 | ibrutinib -0.004 | [15] -0.001 | ralimetinib 0.082 | [9] -0.05 | [10] 0.002 | [11] 0.027 | [12] -0.033 | [13] -0.03 | [14] -0.006 | [16] 0.034

ATXN2L (UniProt H3BUF6)
inactive: erlotinib 0.051 | [1] -0.259 | [2] 0.048 | [3] -0.025 | [6] 0.027 | [7] -0.067 | [8] 0.058 | [15] -0.013 | [10] -0.042 | [11] 0.052 | [12] -0.145 | [13] 0.11 | [16] 0.007

ASXL1 (UniProt Q8IXJ9)
inactive: erlotinib 0.028 | [2] 0.008 | [4] 0.002 | [5] -0.049 | [7] 0.022 | [8] -0.027 | IRAK-1-4 Inhibitor I 0.065 | ibrutinib -0.009 | [15] -0.001 | ralimetinib 0.037 | [9] -0.005 | [10] -0.041 | [11] -0.085 | [12] -0.105 | [13] -0.023 | [14] -0.043 | [16] -0.029

ASNS (UniProt P08243)
inactive: erlotinib 0.024 | [1] 0.067 | [2] -0.019 | [3] -0.007 | [4] 0.017 | [5] -0.023 | [6] -0.018 | [7] 0.016 | [8] 0.038 | IRAK-1-4 Inhibitor I 0.011 | ibrutinib 0.012 | [15] 0.015 | ralimetinib -0.014 | [9] 0.012 | [10] 0.052 | [11] -0.017 | [12] 0.04 | [13] 0.016 | [14] 0.014 | [16] 0.047

ATRN (UniProt O75882)
inactive: erlotinib -0.03 | [1] 0.121 | [2] 0.074 | [3] -0.25 | [4] 0.003 | [5] -0.044 | [6] 0.114 | [7] -0.027 | [8] -0.052 | IRAK-1-4 Inhibitor I 0.059 | ibrutinib 0.133 | [15] -0.064 | ralimetinib 0.01 | [9] -0.031 | [10] -0.113 | [12] -0.039 | [13] 0.027 | [14] 0.003 | [16] -0.016

ATP5F1B (UniProt F8W0P7)
inactive: erlotinib 0.091 | [1] 0.178 | [2] 0.024 | [3] -0.015 | [6] -0.163 | [10] 0.031 | [12] -0.106

ATP5PO (UniProt P48047)
inactive: erlotinib -0.015 | [1] 0.045 | [2] -0.019 | [3] -0.006 | [4] -0.02 | [5] 0.015 | [6] 0.029 | [7] 0.016 | [8] -0.022 | IRAK-1-4 Inhibitor I -0.014 | ibrutinib -0.01 | [15] 0.002 | ralimetinib -0.037 | [9] 0.002 | [10] -0.009 | [11] -0.006 | [12] -0.017 | [13] -0.003 | [14] -0.004 | [16] 0.007

ATXN2L (UniProt Q8WWM7)
inactive: erlotinib -0.001 | [1] -0.157 | [2] -0.002 | [3] -0.009 | [4] -0.009 | [5] -0.07 | [6] 0.049 | [7] -0.141 | [8] -0.021 | IRAK-1-4 Inhibitor I 0.018 | ibrutinib 0.035 | ralimetinib 0.025 | [9] -0.053 | [10] -0.012 | [11] -0.046 | [12] 0.145 | [13] -0.072 | [14] 0.08

ATF7IP2 (UniProt Q5U623)
inactive: erlotinib 0.012 | [1] -0.034 | [2] 0.086 | [3] 0.026 | [4] -0.069 | [5] -0.027 | [6] -0.132 | IRAK-1-4 Inhibitor I 0.027 | ibrutinib 0.054 | [15] -0.03 | ralimetinib 0.045 | [9] -0.201 | [10] 0.058 | [11] -0.056 | [13] 0.097 | [14] -0.04 | [16] -0.088

ATF1 (UniProt P18846)
inactive: erlotinib -0.04 | [2] 0.048 | [4] -0.055 | [5] 0.022 | [7] -0.085 | [8] 0.199 | IRAK-1-4 Inhibitor I -0.06 | ibrutinib -0.039 | [15] 0.019 | ralimetinib -0.08 | [9] -0.046 | [10] -0.038 | [11] 0.01 | [12] -0.007 | [13] 0.024 | [14] 0.033 | [16] -0.032

ASPM (UniProt Q8IZT6)
inactive: erlotinib -0.044 | [1] -0.078 | [2] -0.006 | [3] -0.017 | [5] -0.009 | [6] 0.069 | [7] 0.03 | [8] 0.068 | IRAK-1-4 Inhibitor I -0.081 | [15] 0.02 | ralimetinib 0.04 | [9] -0.005 | [10] -0.051 | [11] 0 | [12] -0.021 | [13] -0.07 | [14] -0.026 | [16] 0.021

AURKB isoform 5 (UniProt Q96GD4)
inactive: erlotinib 0.05 | [1] -0.091 | [2] -0.047 | [3] -0.009 | [4] -0.035 | [6] 0.531 | [7] -0.063 | [8] -0.178 | ibrutinib -0.087 | [10] 0.079 | [11] -0.042 | [12] -0.147 | [13] -0.046

ATP11C, A0A067XG54
inactive: erlotinib 0.024 | [2] -0.026 | [4] -0.006 | [5] 0.013 | IRAK-1-4 Inhibitor I 0.078 | ibrutinib 0.039 | [15] 0.051 | ralimetinib -0.081 | [9] -0.023 | [10] -0.011 | [12] 0.018 | [13] 0.02 | [14] 0.046 | [16] 0.111

Looked up one by one from the list above (two):
ATF1 (UniProt P18846)
inactive: erlotinib -0.04 | [2] 0.048 | [4] -0.055 | [5] 0.022 | [7] -0.085 | [8] 0.199 | IRAK-1-4 Inhibitor I -0.06 | ibrutinib -0.039 | [15] 0.019 | ralimetinib -0.08 | [9] -0.046 | [10] -0.038 | [11] 0.01 | [12] -0.007 | [13] 0.024 | [14] 0.033 | [16] -0.032

ASPM (UniProt Q8IZT6)
inactive: erlotinib -0.044 | [1] -0.078 | [2] -0.006 | [3] -0.017 | [5] -0.009 | [6] 0.069 | [7] 0.03 | [8] 0.068 | IRAK-1-4 Inhibitor I -0.081 | [15] 0.02 | ralimetinib 0.04 | [9] -0.005 | [10] -0.051 | [11] 0 | [12] -0.021 | [13] -0.07 | [14] -0.026 | [16] 0.021

Further entries follow:

ATP5F1C isoform 2 (UniProt P36542)
inactive: [4] -0.152 | [5] 0.231 | IRAK-1-4 Inhibitor I -0.063 | ibrutinib -0.038 | ralimetinib 0.032 | [9] 0.039 | [13] -0.086 | [14] -0.047

ATXN7L3 isoform 2 (UniProt Q14CW9)
inactive: erlotinib -0.285 | [2] -0.115 | [4] -0.029 | [5] -0.034 | IRAK-1-4 Inhibitor I 0.039 | ibrutinib -0.298 | [15] 0.089 | ralimetinib 0.055 | [9] -0.076 | [10] 0.017 | [11] 0.357 | [12] 0.05 | [13] -0.143 | [14] -0.012 | [16] -0.123

NA (UniProt B2RBV5)
inactive: erlotinib -0.145 | [2] -0.025 | [4] 0.052 | [7] -0.032 | [8] 0.073 | ibrutinib -0.079 | [15] -0.071 | [10] 0.143 | [11] 0.056 | [13] 0.031 | [16] -0.09

ATP6V0A1 (UniProt Q93050)
inactive: erlotinib 0.112 | [2] 0.061 | [4] 0.072 | [5] 0.067 | IRAK-1-4 Inhibitor I -0.015 | ibrutinib -0.018 | [15] -0.145 | ralimetinib 0.02 | [9] 0.19 | [10] 0.041 | [12] 0.103 | [13] -0.048 | [14] -0.116 | [16] -0.104
